# For at least one entry, the source does not settle the construct or the ends of the probe. The comparison behind a weaker result is the experiment's own reference, which may not be listed here. Where a protein sequence is shown, tags need not be part of it.
# Target: T1, DDX42 (Homo sapiens) (UniProt Q86XP3)
# T1 sequence (looked up, limits assumed): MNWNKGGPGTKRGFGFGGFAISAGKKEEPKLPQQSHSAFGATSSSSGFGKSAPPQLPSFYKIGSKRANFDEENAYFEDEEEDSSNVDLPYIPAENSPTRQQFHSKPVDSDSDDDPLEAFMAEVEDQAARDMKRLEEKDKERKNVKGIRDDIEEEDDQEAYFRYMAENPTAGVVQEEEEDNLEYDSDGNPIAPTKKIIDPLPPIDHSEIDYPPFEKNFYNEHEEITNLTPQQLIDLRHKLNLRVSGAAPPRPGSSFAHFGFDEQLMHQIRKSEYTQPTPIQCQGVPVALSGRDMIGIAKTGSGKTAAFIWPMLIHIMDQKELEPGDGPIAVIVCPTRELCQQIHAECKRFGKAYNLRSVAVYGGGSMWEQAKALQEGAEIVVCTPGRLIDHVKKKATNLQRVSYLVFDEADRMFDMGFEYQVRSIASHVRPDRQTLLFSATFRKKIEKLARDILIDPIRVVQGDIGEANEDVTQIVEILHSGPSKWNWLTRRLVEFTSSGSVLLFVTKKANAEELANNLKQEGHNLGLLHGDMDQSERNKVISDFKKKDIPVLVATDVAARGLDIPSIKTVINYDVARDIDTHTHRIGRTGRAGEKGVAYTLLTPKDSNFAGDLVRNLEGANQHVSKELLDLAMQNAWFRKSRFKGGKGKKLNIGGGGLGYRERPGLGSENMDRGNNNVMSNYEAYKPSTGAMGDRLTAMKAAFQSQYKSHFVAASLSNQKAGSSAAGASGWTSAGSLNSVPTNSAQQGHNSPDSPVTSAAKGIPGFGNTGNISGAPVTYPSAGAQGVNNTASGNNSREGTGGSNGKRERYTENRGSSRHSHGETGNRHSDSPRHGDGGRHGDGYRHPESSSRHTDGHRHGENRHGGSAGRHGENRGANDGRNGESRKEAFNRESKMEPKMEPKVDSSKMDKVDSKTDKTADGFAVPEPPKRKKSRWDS
# Assay: ELISA
# Conditions: little binding; ELISA: 50 mM K2HPO4 pH 7.4, 100 mM KCl (or 100 mM LiCl), 3% BSA block, 0.1% Tween-20 washes; blocking at room temperature, DDX42 1 h; 50 nM biotin-oligo coating; commercial protein; protein details: N-terminal GST; label: 5' biotin; single-stranded DNA
sequence,measurement,value
TGAGAGTGAGTAGAGTGAGTAA [Myc mut (dG4 mut)],binding result,binds more weakly

# — PMC6615864, “Genetic interactions of G-quadruplexes in humans”
